# Whole data set: some 33,000 sequences, median “E-score (-0.5 to 0.5)” near -0.015, cut for the highest 2% near 0.3. This is one part of the list.
# Molecular target: T1, Abf1 (UniProt P14164)
# T1 sequence: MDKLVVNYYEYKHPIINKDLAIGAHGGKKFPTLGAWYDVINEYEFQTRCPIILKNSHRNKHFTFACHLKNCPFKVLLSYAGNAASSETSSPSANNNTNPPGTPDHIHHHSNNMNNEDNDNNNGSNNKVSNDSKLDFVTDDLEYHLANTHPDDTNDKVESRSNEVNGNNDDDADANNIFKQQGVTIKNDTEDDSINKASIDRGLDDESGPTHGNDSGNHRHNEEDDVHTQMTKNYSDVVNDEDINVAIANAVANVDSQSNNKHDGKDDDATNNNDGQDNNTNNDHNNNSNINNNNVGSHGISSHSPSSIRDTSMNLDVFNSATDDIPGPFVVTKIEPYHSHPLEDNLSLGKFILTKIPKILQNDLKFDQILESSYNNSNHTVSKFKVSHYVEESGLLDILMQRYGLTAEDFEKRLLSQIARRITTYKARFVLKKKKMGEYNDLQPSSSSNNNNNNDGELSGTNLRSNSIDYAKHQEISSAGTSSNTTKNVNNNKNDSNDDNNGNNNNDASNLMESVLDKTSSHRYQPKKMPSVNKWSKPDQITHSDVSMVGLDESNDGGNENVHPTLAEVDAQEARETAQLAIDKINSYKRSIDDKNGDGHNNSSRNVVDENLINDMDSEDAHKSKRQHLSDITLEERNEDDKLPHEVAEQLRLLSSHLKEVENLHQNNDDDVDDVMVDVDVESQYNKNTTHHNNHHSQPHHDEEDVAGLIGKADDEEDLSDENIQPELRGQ
# Assay: PBM E-score (8-mer binding enrichment) (E-score (-0.5 to 0.5)); higher = stronger / more preferred TF binding
# Conditions: protein concentration: 200 nM; construct: GST-full length
# Outline: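 Full-length yeast transcription factors or their DNA-binding domains, GST-tagged and expressed with PURExpress, were applied at about 100-200 nM to universal all-10-mer Agilent arrays. These arrays had been made double-stranded by primer extension on fresh or once-stripped slides. Detection used fluorescent anti-GST, normalisation used masliner, and E-scores for ungapped eight-base words pooled with reverse complements came from the Universal PBM Analysis Suite.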
row,Sequence,PBM E-score
1,GTTTGCCA,0.0189
2,ATGATGGG,-0.0979
3,CGGGGACA,-0.15
4,CACGCAAG,0.223
5,ACTGCACC,-0.0706
6,GTTAGTCA,0.151
7,AGTCCTGA,-0.0493
8,GCTCTATA,-0.0921
9,CGGTTTAC,-0.0155
10,TTTAGAAA,0.113
11,CGATCTCC,0.0735
12,CTGACTGA,-0.165
13,AATGGACT,-0.0774
14,AATTATAT,0.174
15,AAAGTGGG,-0.106
16,CAGCTAGC,-0.124
17,AGAACAAA,0.238
18,CGCGCGAG,0.00904
19,TCAGCTAA,-0.0528
20,CTAATCTC,0.143
21,GACCTGAA,-0.0785
22,CACGAGAG,0.0678
23,AATGGGAT,-0.0703
24,GATACATA,0.209
25,CGCATGTC,0.156

# 7 neighbouring entries out of the list so far, for reference:
row,Sequence,PBM E-score
2,ATGATGGG,-0.0979
3,CGGGGACA,-0.15
4,CACGCAAG,0.223
5,ACTGCACC,-0.0706
6,GTTAGTCA,0.151
7,AGTCCTGA,-0.0493
8,GCTCTATA,-0.0921

# (list continues)

row,Sequence,PBM E-score
1,CCTTCCCC,-0.258
2,CGTAACCA,0.174
3,CGGAACCG,0.00149
4,AAACGTTA,-0.058
5,CCAAGGGC,-0.237
6,ACACCAGA,0.0543
7,CGACACCA,0.0266
8,CGCGTAAG,-0.183
9,ATTCGCCG,0.00282
10,CAATTATC,0.19
11,GTAGCGAA,0.056
12,CAGCGCCA,-0.213
13,ATTGAGGG,-0.0677
14,TCTTTAAA,0.209
15,AGGGTTTA,-0.00523
16,ATATCTAG,0.0162
17,CTTCGTTA,0.173
18,CAGGTTAG,-0.077
19,AGACTCAC,-0.23
20,CCGCTCCC,-0.188
21,ATAAGTAT,0.228
22,CCTATCGA,0.0347
23,CGGCCGCC,-0.12
24,AATTGTGC,0.0989
25,GATGCCAA,-0.0889

# Taken from above:
# GTAGCGAA – PBM E-score: 0.056
# CGTAACCA – PBM E-score: 0.174
# AGACTCAC – PBM E-score: -0.23

# Following part.

row,Sequence,PBM E-score
1,CCACGACG,0.22
2,CGTGCTCA,0.12
3,TAATAGGA,0.0547
4,GCGTACGA,0.317
5,CGTCTAGA,0.065
6,ACTTTATG,-0.068
7,CTCCCACC,-0.257
8,CGTCAGGC,-0.0236
9,GAGGCCGA,-0.0525
10,AAACATAG,-0.0521
11,ACTTCTAG,-0.112
12,TGACCACA,0.0701
13,GGCCGGCA,-0.157
14,CGCACTCA,-0.013
15,CGATAGAG,0.151
16,ATTCCAAA,0.209
17,ACAATAGA,-0.00162
18,ACATGTTC,-0.0222
19,GCCAGTAA,-0.0765
20,ATTGGGGG,-0.339
21,AGCCGTAG,0.212
22,CCATTGTC,-0.067
23,AAGTGCGG,-0.0465
24,CTCGCTTC,-0.0819
25,ACGGTAGC,0.182

row,Sequence,PBM E-score
1,GGCGCAGA,-0.137
2,CTACAACC,0.119
3,ACATATGG,-0.0557
4,CAAACGTG,0.0478
5,AACGTCGA,0.127
6,GGCCGGAA,-0.243
7,CACAATAG,0.0247
8,TAGCATAA,0.0767
9,GACCGTAA,0.0816
10,AGACGGAC,-0.0409
11,AAGACGGG,0.0614
12,AAATCTTG,-0.00313
13,TAGGACTA,-0.103
14,CAGCTCTC,-0.271
15,GCATTACC,-0.0384
16,CAGCAGTA,-0.0254
17,ATCCCCCA,-0.236
18,AATTACGT,0.127
19,ATGTGATA,0.291
20,ACGAGCGC,0.11
21,AATTTGGC,-0.0368
22,ACTGGAAG,-0.112
23,GCCTAAGC,-0.184
24,GAACGCCC,-0.126
25,CGCCTCTA,-0.0982

row,Sequence,PBM E-score
1,CCGACAGA,-0.00185
2,GCAACAAA,-0.13
3,CGAAGCTA,0.0888
4,ATGCTTGC,-0.0291
5,ACATTACG,0.16
6,CCCCACAA,-0.227
7,CTGTACAG,-0.187
8,AGGATCCT,0.163
9,CTTTGGGA,-0.0244
10,AGCGGATA,0.0777
11,ATCGGGGA,-0.199
12,CGGCTCTC,-0.029
13,GAGCTCAA,-0.11
14,CGGCGCCC,-0.143
15,ACCAAGAG,-0.181
16,GGAATACA,-0.0854
17,ACGTTCCT,0.00976
18,CTAACAAG,0.0843
19,GGCTAGAA,-0.138
20,ACGCCCCT,-0.19
21,AGAGGCGC,-0.201
22,ACGACCAC,0.131
23,AGAGTGAA,-0.0316
24,AACCCCCA,-0.296
25,CATTTCTC,-0.00363

row,Sequence,PBM E-score
1,GCACTGCC,-0.0234
2,TGAGAAAA,0.167
3,GCGGCTCA,-0.0985
4,CGTTATAG,0.105
5,ATGTGGTG,0.157
6,CAGCGGCC,-0.255
7,AAACCGAT,-0.0616
8,ACATATCG,0.118
9,CGCACCTA,-0.0566
10,TACCCGAA,-0.0797
11,CGTACTTC,0.143
12,ATAGGCAG,0.0458
13,ACAACAGA,-0.27
14,GAGGTTCA,-0.0597
15,AGCCCAGA,-0.266
16,CCTAGCCG,-0.183
17,CTAAAAAC,-0.0627
18,GCGCGTCC,-0.185
19,AACTTATC,0.232
20,ATCACCCC,0.255
21,CCACGTAG,-0.142
22,CGTTAAAG,0.276
23,CGTGCTTC,0.125
24,TCGTGTCA,0.326
25,ACTGATTA,0.107

row,Sequence,PBM E-score
1,ACGTTAAA,0.227
2,AAACTATG,0.0288
3,CCCTGCGC,-0.0323
4,GAGACTGC,-0.274
5,GCGCTTCA,-0.12
6,AAGGGGCG,-0.251
7,AAGACCAA,-0.0328
8,CTAGTCGA,-0.0388
9,ACCAGACA,0.0437
10,GACCATGA,-0.0131
11,CTGAACCA,-0.0203
12,TGAATCCA,-0.0732
13,TGCAGACA,0.167
14,AAGGCTGC,-0.172
15,CTTTCAGA,0.0967
16,CAACGAGC,-0.0921
17,AATCGTGC,0.311
18,GTCCAAAA,0.137
19,AACGACAT,0.346
20,AAAAAGTC,0.164
21,AATGCCTA,-0.212
22,CGACGGCG,0.171
